For test [1], the target named is T1, endogenous KIF1C of MDA-MB-231 cells (human (endogenous in MDA-MB-231)) (UniProt O43896).
T1 sequence: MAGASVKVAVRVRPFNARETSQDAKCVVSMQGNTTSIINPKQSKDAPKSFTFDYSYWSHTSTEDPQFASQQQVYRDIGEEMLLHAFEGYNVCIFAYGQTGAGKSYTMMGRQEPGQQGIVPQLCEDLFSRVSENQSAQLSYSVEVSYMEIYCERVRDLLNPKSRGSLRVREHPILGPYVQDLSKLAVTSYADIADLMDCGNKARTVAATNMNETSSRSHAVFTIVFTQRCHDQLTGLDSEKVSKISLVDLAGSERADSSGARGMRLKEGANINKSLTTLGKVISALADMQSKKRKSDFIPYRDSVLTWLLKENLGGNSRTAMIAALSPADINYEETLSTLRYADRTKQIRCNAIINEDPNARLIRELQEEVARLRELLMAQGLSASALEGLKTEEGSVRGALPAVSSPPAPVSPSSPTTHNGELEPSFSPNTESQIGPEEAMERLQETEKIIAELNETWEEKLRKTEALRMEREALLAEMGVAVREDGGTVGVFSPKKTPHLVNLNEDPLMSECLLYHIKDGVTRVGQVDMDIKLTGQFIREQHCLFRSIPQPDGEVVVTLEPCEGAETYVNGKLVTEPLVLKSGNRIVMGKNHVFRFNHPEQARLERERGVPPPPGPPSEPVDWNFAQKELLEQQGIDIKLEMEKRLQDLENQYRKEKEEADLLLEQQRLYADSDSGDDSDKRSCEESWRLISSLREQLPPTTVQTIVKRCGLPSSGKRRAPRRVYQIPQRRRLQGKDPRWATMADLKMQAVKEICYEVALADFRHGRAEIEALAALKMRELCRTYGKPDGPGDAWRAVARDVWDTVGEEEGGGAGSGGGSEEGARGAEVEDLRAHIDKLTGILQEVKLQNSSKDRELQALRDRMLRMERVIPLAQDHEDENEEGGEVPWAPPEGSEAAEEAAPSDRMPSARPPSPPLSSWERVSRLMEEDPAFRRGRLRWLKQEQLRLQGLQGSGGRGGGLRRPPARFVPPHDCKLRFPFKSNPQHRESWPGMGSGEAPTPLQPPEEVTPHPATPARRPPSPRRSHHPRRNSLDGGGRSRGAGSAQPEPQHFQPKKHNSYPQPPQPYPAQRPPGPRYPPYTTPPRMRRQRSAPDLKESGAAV
As to the kind of experiment: proximity ligation; DuoLink In Situ Red PLA with rabbit anti-KIF1C and mouse anti-CNBP on fixed, permeabilised MDA-MB-231 cells (pCrispr or siCtrl controls; signal reduced in CNBP-knockout cells or upon KIF1C knockdown).

Chains of the proteins cited; added tags and fusions are not shown.
UniProt P62633: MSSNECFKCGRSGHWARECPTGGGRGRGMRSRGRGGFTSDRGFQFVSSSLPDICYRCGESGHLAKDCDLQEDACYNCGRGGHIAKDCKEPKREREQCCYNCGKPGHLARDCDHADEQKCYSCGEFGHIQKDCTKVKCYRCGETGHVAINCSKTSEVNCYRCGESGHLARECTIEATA

Test [2] concerns the target T1, endogenous KIF1C of MDA-MB-231 cells (human (endogenous in MDA-MB-231)). As to the kind of experiment: co-IP; endogenous KIF1C immunoprecipitated with anti-KIF1C (Bethyl A301-070A) on Protein G Dynabeads from control (pCrispr) cell lysate; 10mM Tris-Cl pH 7.4, 100mM NaCl, 2.5mM MgCl2, 0.5% Triton X-100; 1.5 h at 4°C; CNBP blot.

Results are given in words; binding and its absence hold for the method and conditions named. In cells and extracts the contact can be indirect. Some entries that bind do so weakly or less than the wild type.

As for “endogenous CNBP of MDA-MB-231 cells (from UniProt P62633 1-177)”, the binding entry is reported as “binds” in test [1] and “binds weakly” in test [2].

Source of the values: publication PMC12002053.
